Experimental data taken from the supplement of paper PMC11098740.
Some of the results follow. Single values are uncertain, as repeats are few or missing.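 The assay uses a mixed pool of 41 HAP1 clones in which 61 cancer-associated proteins bear intron-inserted fluorescent tags, and clones are distinguished by image pattern. Results are compared against DMSO-treated control wells, and the BRD4 degrader dBET6 is the positive control.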

Sequences of proteins named here, by UniProt entry; tags and fusion partners are left off.
UniProt O14980, whole entry: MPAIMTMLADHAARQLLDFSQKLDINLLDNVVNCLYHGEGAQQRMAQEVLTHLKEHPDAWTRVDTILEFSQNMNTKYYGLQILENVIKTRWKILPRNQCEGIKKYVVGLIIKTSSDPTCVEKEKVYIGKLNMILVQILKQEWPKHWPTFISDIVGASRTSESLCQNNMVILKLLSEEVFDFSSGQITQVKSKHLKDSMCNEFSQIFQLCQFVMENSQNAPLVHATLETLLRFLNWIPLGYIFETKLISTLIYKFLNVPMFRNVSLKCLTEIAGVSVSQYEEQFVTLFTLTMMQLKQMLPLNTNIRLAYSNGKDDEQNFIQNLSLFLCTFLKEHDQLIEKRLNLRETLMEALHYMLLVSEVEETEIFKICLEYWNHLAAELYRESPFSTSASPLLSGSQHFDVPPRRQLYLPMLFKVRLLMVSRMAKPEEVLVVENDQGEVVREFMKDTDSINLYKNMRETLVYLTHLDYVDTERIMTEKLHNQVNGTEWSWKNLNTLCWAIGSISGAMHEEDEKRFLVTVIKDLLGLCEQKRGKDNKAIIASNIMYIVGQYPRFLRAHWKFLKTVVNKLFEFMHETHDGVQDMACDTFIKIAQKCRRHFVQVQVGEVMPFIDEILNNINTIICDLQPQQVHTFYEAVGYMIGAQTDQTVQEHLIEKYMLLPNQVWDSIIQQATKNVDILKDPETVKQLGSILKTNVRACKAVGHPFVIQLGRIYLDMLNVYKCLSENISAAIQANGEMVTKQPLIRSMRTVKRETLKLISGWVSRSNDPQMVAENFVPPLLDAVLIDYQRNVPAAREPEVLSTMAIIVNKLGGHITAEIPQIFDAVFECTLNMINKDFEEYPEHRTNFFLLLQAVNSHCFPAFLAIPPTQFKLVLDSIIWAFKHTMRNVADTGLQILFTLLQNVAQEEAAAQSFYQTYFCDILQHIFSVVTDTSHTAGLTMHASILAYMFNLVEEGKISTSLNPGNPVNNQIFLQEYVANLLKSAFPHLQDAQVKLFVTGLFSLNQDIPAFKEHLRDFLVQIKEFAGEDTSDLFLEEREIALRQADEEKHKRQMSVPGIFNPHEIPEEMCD

Biological target: XPO1 (intron 15 mScarlet tag, HAP1) (UniProt O14980)
Assay: XPO1 fluorescence intensity change vs DMSO (log2 fold change); higher = more XPO1 protein
Conditions: 6 h

Row | Structure (SMILES) | XPO1 fluorescence intensity change (log2)
1 | CCN1CC(CCN2CCOCC2)C(c2ccccc2)(c2ccccc2)C1=O (centres undefined) [Doxapram] (10 µM) | -0.135
2 | S=c1nc[nH]c2nc[nH]c12 [6-Mercaptopurine] (10.0013 µM) | 0.025
3 | C[N+](C)(C)CCOC(=O)CCC(=O)OCC[N+](C)(C)C [Succinylcholine Chloride] (10 µM) | -0.0774
4 | COC(=O)Nc1nc2cc(C(=O)c3ccccc3)ccc2[nH]1 [Mebendazole] (9.99917 µM) | -0.141
5 | NNc1nncc2ccccc12 [Hydralazine] (10 µM) | -0.0208
6 | CC(=O)Nc1cccc(-n2c(=O)n(C3CC3)c(=O)c3c(Nc4ccc(I)cc4F)n(C)c(=O)c(C)c32)c1 [Trametinib] (10 µM) | 0.206
7 | NC12CC3CC(CC(C3)C1)C2 [Amantadine] (10 µM) | 0.0428
8 | N#C[C@@H]1C[C@@H]2C[C@@H]2N1C(=O)[C@@H](N)C12CC3CC(CC(O)(C3)C1)C2 [Saxagliptin] (9.99933 µM) | -0.00917
9 | COc1cnc(NS(=O)(=O)c2ccc(N)cc2)nc1 [Sulfameter] (10 µM) | 0.135
10 | CO[C@H]1C[C@@H]2CC[C@@H](C)[C@@](O)(O2)C(=O)C(=O)N2CCCC[C@H]2C(=O)O[C@H]([C@H](C)C[C@@H]2CC[C@@H](OCCO)[C@H](OC)C2)CC(=O)[C@H](C)/C=C(\C)[C@@H](O)[C@@H](OC)C(=O)[C@H](C)C[C@H](C)/C=C/C=C/C=C/1C [Everolimus] (20 µM) | -0.0243
11 | CS(=O)(=O)OCCCCOS(C)(=O)=O [Busulfan] (20 µM) | -0.288
12 | Nc1nc(F)nc2c1ncn2[C@@H]1O[C@H](COP(=O)(O)O)[C@@H](O)[C@@H]1O [Fludarabine Phosphate] (20 µM) | 0.127
13 | CNNCc1ccc(C(=O)NC(C)C)cc1 [Procarbazine] (20 µM) | 0.334
14 | COc1ccccc1OCC(O)CN1CCN(CC(=O)Nc2c(C)cccc2C)CC1 (centres undefined) [Ranolazine] (10 µM) | 0.0518
15 | Cc1nnc(C(C)C)n1C1C[C@H]2CC[C@@H](C1)N2CC[C@H](NC(=O)C1CCC(F)(F)CC1)c1ccccc1 (stereo in doubt) [Maraviroc] (10 µM) | 0.0878
16 | CC[N+](C)(CC)CCOC(=O)C(O)(c1ccccc1)C1CCCCC1 (centres undefined) [Oxyphenonium Bromide] (9.99928 µM) | 0.276
17 | C[C@@H](Oc1cc(-c2cnn(C3CCNCC3)c2)cnc1N)c1c(Cl)ccc(F)c1Cl [Crizotinib] (20 µM) | 0.0881
18 | CCc1c2c(nc3ccc(O)cc13)-c1cc3c(c(=O)n1C2)COC(=O)[C@]3(O)CC [7-Ethyl-10-Hydroxy-Camptothecin] (10 µM) | 0.0555
19 | CC(N/C(=N\C#N)Nc1ccncc1)C(C)(C)C (centres undefined) [Pinacidil] (10 µM) | 0.107
20 | Nc1c2c(nc3ccccc13)CCCC2 [Tacrine] (9.99926 µM) | 0.0826

Compounds 2–3 from above:
Row | Structure (SMILES) | XPO1 fluorescence intensity change (log2)
2 | S=c1nc[nH]c2nc[nH]c12 [6-Mercaptopurine] (10.0013 µM) | 0.025
3 | C[N+](C)(C)CCOC(=O)CCC(=O)OCC[N+](C)(C)C [Succinylcholine Chloride] (10 µM) | -0.0774

More structures

Row | Structure (SMILES) | XPO1 fluorescence intensity change (log2)
21 | Oc1ncnc2[nH]ncc12 [Allopurinol] (10 µM) | -0.0285
22 | COc1cc(Nc2ncc3c(n2)-c2ccc(Cl)cc2C(c2c(F)cccc2OC)=NC3)ccc1C(=O)O [Alisertib] (10 µM) | 0.13
23 | CS(=O)(=O)CCNCc1ccc(-c2ccc3ncnc(Nc4ccc(OCc5cccc(F)c5)c(Cl)c4)c3c2)o1 [Lapatinib] (20 µM) | 0.113
24 | O=C1c2c(O)ccc(O)c2C(=O)c2c(NCCNCCO)ccc(NCCNCCO)c21 [Mitoxantrone] (0.1144 µM) | 0.077
25 | CCNC(=O)[C@@H]1CCCN1C(=O)[C@H](CCCNC(=N)N)NC(=O)[C@H](CC(C)C)NC(=O)[C@@H](CC(C)C)NC(=O)[C@H](Cc1ccc(O)cc1)NC(=O)[C@H](CO)NC(=O)[C@H](Cc1c[nH]c2ccccc12)NC(=O)[C@H](Cc1c[nH]cn1)NC(=O)[C@@H]1CCC(=O)N1 [Leuprolide] (20 µM) | -0.0924
26 | CC(=O)c1c(C)c2cnc(Nc3ccc(N4CCNCC4)cn3)nc2n(C2CCCC2)c1=O [Palbociclib] (10 µM) | 0.0405
27 | CC12CC3CC(C)(C1)CC(N)(C3)C2 [Memantine] (9.99939 µM) | 0.0602
28 | C[C@](N)(Cc1ccc(O)cc1)C(=O)O [Metyrosine] (10 µM) | -0.00284
29 | O=C(C1CCCCC1)N1CC(=O)N2CCc3ccccc3C2C1 (centres undefined) [Praziquantel] (9.99966 µM) | -0.0367
30 | Cc1[nH]c2ccccc2c1CCNCc1ccc(/C=C/C(=O)NO)cc1 [Panobinostat] (20 µM) | 0.0883
31 | COc1cc(N)c(Cl)cc1C(=O)NC1CCN(CCCOc2ccc(F)cc2)CC1OC (centres undefined) [Cisapride] (10.00071305 µM) | -0.0084
32 | CC(C)C[C@H](NC(=O)CNC(=O)c1cc(Cl)ccc1Cl)B(O)O [Ixazomib] (1 µM) | -0.0762
33 | NCCCC(N)(C(=O)O)C(F)F (centres undefined) [Eflornithine] (10 µM) | 0.0661
34 | CC#CCC(C)[C@H](O)/C=C/[C@@H]1[C@H]2C/C(=C/CCCC(=O)O)C[C@H]2C[C@H]1O (some centres undefined) [Iloprost] (10 µM) | 0.0382
35 | NC(=O)c1cn(Cc2c(F)cccc2F)nn1 [Rufinamide] (10 µM) | 0.0406
36 | COc1cc([C@@H]2c3cc4c(cc3[C@@H](O[C@@H]3O[C@@H]5CO[C@@H](C)O[C@H]5[C@H](O)[C@H]3O)[C@H]3COC(=O)[C@H]23)OCO4)cc(OC)c1O [Etoposide] (20 µM) | 0.0296
37 | Nc1nc(N)c2nc(-c3ccccc3)c(N)nc2n1 [Triamterene] (9.99945 µM) | 0.0341
38 | Nc1nc(N)c2nc(CNc3ccc(C(=O)N[C@@H](CCC(=O)O)C(=O)O)cc3)cnc2n1 [Aminopterin] (20 µM) | 0.162
39 | COc1cc(Cc2cnc(N)nc2N)cc(OC)c1OC [Trimethoprim] (10 µM) | 0.113
